# Patent US20230277591A1 (JULIUS-MAXIMILIANS-UNIVERSITÄT WÜRZBURG, priority 2017, published 2023)
# At least one structure is not confirmed: it was looked up by name or label, or the drawing left a doubt.
# Tests used:
# MOLM-13 AML cells [1] = test: MOLM-13 xenograft model of AML in NSG mice; assay type: in vivo, mouse; details: midostaurin 1 mg/kg i.p., after 5 doses, vs no midostaurin
# Protocol: All experiments were approved by the Institutional Animal Care and Use Committees of the participating institutions. NOD.Cg-Prkdc^scid Il2rg^tm1Wjl/SzJ (NSG) mice (female, 6-8 week old) were purchased from Charles River or bred in-house. Mice were inoculated with 1×10^6 ffluc_GFP^+ MOLM-13 AML cells by tail vein injection on day 0, and received a single dose of 5×10^6 T cells (in 200 µL of PBS/0.5% FCS) by tail vein injection on day 7. Crenolanib [15 mg/kg; 200 µL of 30% glycerol formal (Sigma Aldrich, Munich, Germany)] was administered intraperitoneally (i.p.) Monday-Friday for 3 consecutive weeks. AML progression/regression was assessed by serial bioluminescence imaging following i.p. administration of D-luciferin substrate (0.3 mg/g body weight) (Biosynth, Staad, Switzerland) using an IVIS Lumina imaging system (Perkin Elmer, Waltham, Massachusetts). Data was analyzed using Living Image software (Perkin Elmer).
# All experiments were approved by the Institutional Animal Care and Use Committees of the participating institutions. […] AML progression/regression was assessed by serial bioluminescence imaging following i.p. administration of D-luciferin substrate (0.3 mg/g body weight) (Biosynth, Staad, Switzerland) using an IVIS Lumina imaging system (Perkin Elmer, Waltham, Massachusetts). Data was analyzed using Living Image software (Perkin Elmer).
# MOLM-13 AML cells [2] = test: Flow cytometric analysis of surface expression (FLT3, CD33, CD123) after FLT3 inhibitor treatment, MOLM-13; assay type: cell-based, human
# Protocol: (§1) Cell surface expression of FLT3 (CD135) was analyzed using a conjugated mouse-anti-human-FLT3 mAb (clone 4G8, BD Pharmagin, BD Biosciences, Germany) and mouse IgG1 isotype control (BD Pharmagin). In brief, 1×10^6 cells were washed, resuspended in 100 µL PBS/0.5% fetal calf serum and stained with 5 µL of anti-FLT3 mAb or isotype for 30 minutes at 4° C.
# A complete medium change was performed every 7 days, MOLM-13 cells adjusted to 1×10^6/mL medium and 2 mL of this cell suspension plated per well in […] (Costar, Corning, NJ). After 2-3 weeks of culture with 10 nM midostaurine, MOLM-13 cells were exposed to exponentially increasing concentration of midostaurine for next 8-10 weeks to reach 50 nM midostaurin.
# MV4;11 AML cells = test: Flow cytometric analysis of surface expression after FLT3 inhibitor treatment, MV4;11; assay type: cell-based, human; details: MV4;11 (FLT3-ITD+/+)
# Protocol: as §1
# THP-1 AML cells = test: Flow cytometric analysis of FLT3 expression after FLT3 inhibitor treatment, THP-1; assay type: cell-based, human; details: THP-1, wild-type FLT3
# Protocol: as §1
# [3] = system: K562 erythro-myeloid leukemia; test: Flow cytometric analysis of FLT3 expression after FLT3 inhibitor treatment, K562; assay type: cell-based, human; details: K562, wild-type FLT3
# Protocol: as §1
compound,measurement,setting,value
CO[C@@H]1[C@H](N(C)C(=O)c2ccccc2)C[C@H]2O[C@]1(C)n1c3ccccc3c3c4c(c5c6ccccc6n2c5c31)C(=O)NC4 [midostaurin],FLT3 expression on MOLM-13 cells recovered from bone marrow,MOLM-13 AML cells [1],strongly upregulated
same,FLT3 surface protein (MFI) compared to MOLM-13native,"MOLM-13 AML cells [2]; 10 nM midostaurin 2-3 weeks, 10 nM crenolanib 5 days, 1 nM quizartinib 5 days, p < 0.05",significantly higher levels
same,FLT3 expression upon re-exposure to the drug,MOLM-13 AML cells [2]; MOLM-13 after withdrawal,increased again
same,CD33 expression on MOLM-13,MOLM-13 AML cells [2]; inhibitor-treated vs native,slightly reduced
same,CD123 expression on MOLM-13,MOLM-13 AML cells [2]; inhibitor-treated vs native,significant reduction
same,FLT3 expression after raising concentration,MOLM-13 AML cells [2]; midostaurin 10 nM to 50 nM over next 8-10 weeks,further increase
same,FLT3 expression upon exposure,MV4;11 AML cells,increase
same,increase in FLT3 expression upon exposure,THP-1 AML cells,did not occur
same,increase in FLT3 expression upon exposure,[3],did not occur
